From patent publication US12528837B2 (priority 2018, dated 2026)

Test: general procedure: Fmoc solid-phase peptide synthesis; chlorotrityl chloride (CTC)-resin pre-loaded with Fmoc-Thr(tBu)-OH; Fmoc-Thr(tBu)-PEG-PS resin; HATU/DIPEA
Details: late stage modification step

H-Thr(O-^tBu)-Dap(BOC)-Cyclo[Dab-Dab(BOC)-Dleu-L-Abu-Dab(BOC)-Dab(BOC)-Thr(O-tBu)]
step yield: 96%
